Assay results taken from patent US20110130386A1, “DNA-PK INHIBITORS” (priority 2008, published 2011).
The structures given here were assigned with low confidence; some may be wrong.

The chains behind the UniProt entries cited, without tags or fusion partners.
UniProt P78527, whole entry: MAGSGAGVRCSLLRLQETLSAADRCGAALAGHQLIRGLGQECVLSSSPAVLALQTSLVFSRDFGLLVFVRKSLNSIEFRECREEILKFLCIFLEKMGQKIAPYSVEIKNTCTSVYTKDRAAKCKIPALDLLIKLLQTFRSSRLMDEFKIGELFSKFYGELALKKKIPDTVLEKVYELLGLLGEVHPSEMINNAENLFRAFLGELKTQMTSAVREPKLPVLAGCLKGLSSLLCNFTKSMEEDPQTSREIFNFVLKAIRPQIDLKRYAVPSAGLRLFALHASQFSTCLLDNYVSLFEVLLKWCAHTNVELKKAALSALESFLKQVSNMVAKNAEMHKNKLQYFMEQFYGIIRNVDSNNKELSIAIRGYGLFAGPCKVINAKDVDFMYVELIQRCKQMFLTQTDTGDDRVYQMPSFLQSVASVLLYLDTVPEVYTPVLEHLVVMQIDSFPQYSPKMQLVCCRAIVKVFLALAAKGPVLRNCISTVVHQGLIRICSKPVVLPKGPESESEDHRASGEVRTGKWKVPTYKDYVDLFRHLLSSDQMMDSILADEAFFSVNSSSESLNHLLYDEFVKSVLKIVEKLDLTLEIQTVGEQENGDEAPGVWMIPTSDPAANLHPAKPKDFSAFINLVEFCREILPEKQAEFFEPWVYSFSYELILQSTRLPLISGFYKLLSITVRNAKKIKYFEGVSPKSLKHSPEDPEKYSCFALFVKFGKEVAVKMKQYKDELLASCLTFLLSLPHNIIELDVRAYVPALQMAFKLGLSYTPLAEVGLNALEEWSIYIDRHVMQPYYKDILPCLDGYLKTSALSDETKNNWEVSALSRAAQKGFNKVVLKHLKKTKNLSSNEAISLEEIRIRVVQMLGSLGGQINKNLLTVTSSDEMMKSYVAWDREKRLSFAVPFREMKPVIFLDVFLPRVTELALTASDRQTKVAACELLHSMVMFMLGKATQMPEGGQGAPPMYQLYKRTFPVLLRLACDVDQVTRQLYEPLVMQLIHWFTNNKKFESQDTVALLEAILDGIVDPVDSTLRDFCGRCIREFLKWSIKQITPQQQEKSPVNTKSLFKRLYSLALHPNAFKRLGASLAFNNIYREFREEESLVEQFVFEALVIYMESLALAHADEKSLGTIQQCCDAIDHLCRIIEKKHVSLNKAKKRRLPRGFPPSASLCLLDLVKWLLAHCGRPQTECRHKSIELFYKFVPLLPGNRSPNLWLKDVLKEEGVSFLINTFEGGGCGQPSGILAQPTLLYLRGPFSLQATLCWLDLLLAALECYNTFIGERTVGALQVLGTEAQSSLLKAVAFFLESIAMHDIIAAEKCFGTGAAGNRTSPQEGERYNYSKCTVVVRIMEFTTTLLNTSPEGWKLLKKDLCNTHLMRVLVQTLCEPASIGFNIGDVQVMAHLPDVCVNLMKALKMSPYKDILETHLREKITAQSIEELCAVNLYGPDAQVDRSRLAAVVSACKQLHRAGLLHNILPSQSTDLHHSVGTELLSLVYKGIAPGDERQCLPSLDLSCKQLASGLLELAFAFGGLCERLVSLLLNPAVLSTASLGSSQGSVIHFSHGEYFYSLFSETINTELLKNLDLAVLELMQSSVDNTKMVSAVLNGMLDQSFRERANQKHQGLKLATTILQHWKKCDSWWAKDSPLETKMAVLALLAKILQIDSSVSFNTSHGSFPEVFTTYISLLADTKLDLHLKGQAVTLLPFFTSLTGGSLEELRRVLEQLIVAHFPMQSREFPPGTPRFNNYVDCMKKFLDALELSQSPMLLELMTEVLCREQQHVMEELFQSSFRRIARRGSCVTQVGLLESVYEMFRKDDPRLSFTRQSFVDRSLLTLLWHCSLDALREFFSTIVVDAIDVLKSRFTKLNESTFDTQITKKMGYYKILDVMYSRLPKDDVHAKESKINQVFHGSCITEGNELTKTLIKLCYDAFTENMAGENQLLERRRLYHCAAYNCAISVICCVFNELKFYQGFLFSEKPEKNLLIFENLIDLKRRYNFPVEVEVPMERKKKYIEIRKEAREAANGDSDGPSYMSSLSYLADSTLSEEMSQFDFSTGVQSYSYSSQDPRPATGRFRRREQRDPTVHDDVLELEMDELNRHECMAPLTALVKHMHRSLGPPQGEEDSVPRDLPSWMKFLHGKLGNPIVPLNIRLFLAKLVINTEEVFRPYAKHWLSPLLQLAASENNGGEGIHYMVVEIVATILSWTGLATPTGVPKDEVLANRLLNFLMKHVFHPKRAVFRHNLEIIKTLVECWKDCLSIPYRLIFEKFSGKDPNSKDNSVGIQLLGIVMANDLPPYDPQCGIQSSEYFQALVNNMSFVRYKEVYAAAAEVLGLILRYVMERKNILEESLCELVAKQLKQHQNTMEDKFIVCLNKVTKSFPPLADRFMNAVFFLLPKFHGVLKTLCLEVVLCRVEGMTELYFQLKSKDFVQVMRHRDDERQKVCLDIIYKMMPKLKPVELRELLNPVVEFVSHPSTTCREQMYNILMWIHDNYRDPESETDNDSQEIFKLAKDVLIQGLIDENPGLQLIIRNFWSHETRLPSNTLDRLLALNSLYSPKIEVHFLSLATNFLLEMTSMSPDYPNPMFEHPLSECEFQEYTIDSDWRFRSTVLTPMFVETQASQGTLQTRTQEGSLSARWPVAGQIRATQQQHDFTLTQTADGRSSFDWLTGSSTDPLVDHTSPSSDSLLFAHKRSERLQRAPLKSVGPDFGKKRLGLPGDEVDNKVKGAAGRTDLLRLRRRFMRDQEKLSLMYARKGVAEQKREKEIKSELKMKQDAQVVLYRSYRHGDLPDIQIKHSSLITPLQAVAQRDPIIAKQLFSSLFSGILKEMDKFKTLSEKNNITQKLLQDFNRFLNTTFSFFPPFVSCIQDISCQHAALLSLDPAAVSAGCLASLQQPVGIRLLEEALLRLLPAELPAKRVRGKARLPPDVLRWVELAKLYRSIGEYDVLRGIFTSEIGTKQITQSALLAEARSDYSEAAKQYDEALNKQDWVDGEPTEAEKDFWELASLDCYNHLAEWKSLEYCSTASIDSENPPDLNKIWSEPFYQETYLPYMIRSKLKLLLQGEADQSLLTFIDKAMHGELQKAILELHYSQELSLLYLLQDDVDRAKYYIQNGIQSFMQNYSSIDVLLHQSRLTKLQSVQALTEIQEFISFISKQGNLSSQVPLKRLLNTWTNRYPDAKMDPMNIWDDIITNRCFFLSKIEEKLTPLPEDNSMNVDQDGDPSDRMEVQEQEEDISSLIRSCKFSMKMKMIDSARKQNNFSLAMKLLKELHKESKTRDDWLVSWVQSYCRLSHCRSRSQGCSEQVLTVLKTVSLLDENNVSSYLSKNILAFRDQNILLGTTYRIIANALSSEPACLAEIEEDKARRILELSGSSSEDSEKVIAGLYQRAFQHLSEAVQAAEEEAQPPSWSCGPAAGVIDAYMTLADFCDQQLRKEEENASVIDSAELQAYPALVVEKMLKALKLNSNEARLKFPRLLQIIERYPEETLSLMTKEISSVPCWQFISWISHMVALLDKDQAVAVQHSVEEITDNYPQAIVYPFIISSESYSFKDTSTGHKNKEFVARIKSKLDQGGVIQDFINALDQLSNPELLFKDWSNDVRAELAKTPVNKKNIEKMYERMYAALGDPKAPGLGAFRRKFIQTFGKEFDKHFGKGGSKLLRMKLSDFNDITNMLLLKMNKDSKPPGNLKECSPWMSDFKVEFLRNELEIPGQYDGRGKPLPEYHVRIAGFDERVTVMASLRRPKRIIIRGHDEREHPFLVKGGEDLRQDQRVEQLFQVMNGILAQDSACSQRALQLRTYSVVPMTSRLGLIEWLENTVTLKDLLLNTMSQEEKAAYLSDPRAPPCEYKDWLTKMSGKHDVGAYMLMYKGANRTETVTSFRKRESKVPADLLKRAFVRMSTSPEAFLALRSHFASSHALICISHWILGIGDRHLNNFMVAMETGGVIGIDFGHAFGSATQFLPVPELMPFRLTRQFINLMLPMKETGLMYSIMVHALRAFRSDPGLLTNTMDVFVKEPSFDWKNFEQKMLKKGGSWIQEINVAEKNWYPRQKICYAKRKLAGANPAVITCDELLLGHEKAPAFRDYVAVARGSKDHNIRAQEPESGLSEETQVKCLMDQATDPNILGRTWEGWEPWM
UniProt P13010, whole entry partner: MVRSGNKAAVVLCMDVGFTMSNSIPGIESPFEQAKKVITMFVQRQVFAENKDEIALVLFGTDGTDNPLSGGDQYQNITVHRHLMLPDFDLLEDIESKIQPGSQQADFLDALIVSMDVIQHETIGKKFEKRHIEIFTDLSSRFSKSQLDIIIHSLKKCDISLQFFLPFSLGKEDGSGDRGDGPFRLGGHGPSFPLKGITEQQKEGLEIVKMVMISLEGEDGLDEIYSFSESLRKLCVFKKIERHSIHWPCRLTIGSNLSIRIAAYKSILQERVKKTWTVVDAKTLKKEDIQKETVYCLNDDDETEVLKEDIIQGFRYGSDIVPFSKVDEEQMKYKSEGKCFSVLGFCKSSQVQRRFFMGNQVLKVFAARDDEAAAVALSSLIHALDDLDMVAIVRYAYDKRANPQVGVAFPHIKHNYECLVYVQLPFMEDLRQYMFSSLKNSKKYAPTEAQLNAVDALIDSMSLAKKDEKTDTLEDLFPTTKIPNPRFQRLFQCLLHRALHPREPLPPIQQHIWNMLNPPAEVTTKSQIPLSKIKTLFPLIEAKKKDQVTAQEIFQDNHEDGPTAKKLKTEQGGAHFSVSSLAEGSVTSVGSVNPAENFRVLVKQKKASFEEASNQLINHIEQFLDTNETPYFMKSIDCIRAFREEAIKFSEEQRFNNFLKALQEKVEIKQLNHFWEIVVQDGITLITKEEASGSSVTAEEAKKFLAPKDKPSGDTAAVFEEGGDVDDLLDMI
UniProt P12956, whole entry partner: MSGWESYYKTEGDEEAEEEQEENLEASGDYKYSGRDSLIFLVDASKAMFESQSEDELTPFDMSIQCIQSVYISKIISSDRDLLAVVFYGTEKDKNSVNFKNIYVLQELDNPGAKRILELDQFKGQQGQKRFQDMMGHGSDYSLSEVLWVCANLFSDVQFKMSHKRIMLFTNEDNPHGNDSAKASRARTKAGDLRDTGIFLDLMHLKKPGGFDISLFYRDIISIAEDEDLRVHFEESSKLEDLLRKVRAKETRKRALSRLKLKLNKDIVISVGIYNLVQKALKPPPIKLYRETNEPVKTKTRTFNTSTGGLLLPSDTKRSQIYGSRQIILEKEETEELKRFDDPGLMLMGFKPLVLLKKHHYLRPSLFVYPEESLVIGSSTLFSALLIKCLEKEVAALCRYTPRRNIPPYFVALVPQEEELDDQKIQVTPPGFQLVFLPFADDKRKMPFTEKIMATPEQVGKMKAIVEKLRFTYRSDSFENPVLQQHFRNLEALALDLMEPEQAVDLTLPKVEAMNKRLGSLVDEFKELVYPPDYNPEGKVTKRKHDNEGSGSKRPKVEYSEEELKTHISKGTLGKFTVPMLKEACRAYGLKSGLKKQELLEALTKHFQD

Molecular target: Mammalian DNA-PK (Homo sapiens, UniProt P78527)
Assay: DNA-PK inhibition assay (ELISA of p53 Ser15 phosphorylation of GST-p53N66)
Type: biochemical, Mammalian (isolated from HeLa cell nuclear extract)
Details: read-out: mean IC50; DNA-PK from HeLa nuclear extract; mean value

Row | Compound | IC50
1 | O=c1cc(N2CCOCC2)oc2c(-c3ccc(CNc4ccccc4)c4c3sc3ccccc34)cccc12 | 24.8 nM
2 | CNCc1ccc(-c2cccc3c(=O)cc(N4CCOCC4)oc23)c2sc3ccccc3c12 | 42.2 nM
3 | O=c1cc(N2CCOCC2)oc2c(-c3ccc(CNCCOCCO)c4c3sc3ccccc34)cccc12 | 58.9 nM
